The campaign covered roughly 400,000 compounds. About 5,500 (1.4%) were called active. The shares of active, inactive and inconclusive entries below differ from those in the screen. Calls follow the shape of the dose curve; as a rule, active = well fitted cell-killing curve with a large enough effect; inconclusive = small, poorly fitted or top-dose-only effect, or effect the other way; inactive = flat fitted curve, though single readings scatter. Where the call is inconclusive, the potency comes from a doubtful curve fit.
Experiment: qHTS assay for MDR1-selective chemotherapeutics: Primary screen using the parental adenocarcinoma cell KB-3-1; also: nearly all actives have a fitted effect of over 60% in size
Conditions: KB-3-1 viability, CellTiter-Glo ATP luminescence, 72 h; activity change, negative = cytotoxic: at 46.1 µM (top of the series)
Method in brief: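 Cytotoxicity in the drug-sensitive parental line KB-3-1 was scored as loss of CellTiter-Glo luminescence following 72 h incubation with compound. Values come from curve fitting of normalized concentration-response data.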
% is scaled to controls: 0 for no effect and ±100 for the full control effect; potency is read from the fitted curve at half-maximal effect.

Compound	Potency	activity change, negative = cytotoxic
CC(C)CNS(=O)(=O)c1ccc(CCC(=O)NCc2ccncc2)cc1	inconclusive: 29.1 µM [rising, single point]	–
Cc1ccc(S(=O)(=O)N(CC(=O)N2CCN(c3ccc(F)cc3)CC2)C2CCCCC2)cc1	inconclusive: 29.1 µM [cytotoxic, single point]	–
O=C1CCCc2c1[nH]c1ccc(Cl)cc21	inconclusive: 1.46 µM [cytotoxic, full curve, poor fit]	–
COc1ccc(Cc2noc(CN3CCN(c4ccc(Cl)cn4)CC3)n2)cc1OC	inconclusive: 29.1 µM [cytotoxic, single point]	–
COc1cc(C(=O)NC(=S)Nc2ccc(NC(=O)c3ccco3)cc2)cc(OC)c1OC	inconclusive: 8.2 µM [rising, partial curve, poor fit]	–
CCOc1ccc(N2C(=O)Nc3ccc(Br)cc3C2(O)C(=O)NC(C)C)cc1 (centres undefined)	–	inactive: -0.0996%
Cc1ccc(-c2c[n+](CC(=O)Nc3ccccc3)c3n2CCC3)cc1	inconclusive: 1.84 µM [cytotoxic, partial curve, poor fit]	–
O=S(=O)(c1ccc(NC(=S)N/N=C/c2ccc(Oc3ccccc3)cc2)cc1)N1CCOCC1	–	inactive: -9.98%
COc1ccc(N2C(=O)c3ccc(C(=O)OC(C)C)cc3C2=O)cc1	active: 18.4 µM	–
O=c1[nH]c(=O)n([C@@H]2O[C@H](CO)[C@@H](O)[C@H]2O)cc1F	inconclusive: 8.2 µM [cytotoxic, partial curve, poor fit]	–
CNC(=O)c1cc(Nc2nnc(-c3ccc(C)c(S(N)(=O)=O)c3)c3ccccc23)ccc1OC	–	inactive: -9.56%
Cc1nc(-c2ccccn2)nc(N2CCOCC2)c1Cl	–	inactive: 40.9%
COc1cc(O)c(C(CCN2CCCCC2)c2cc(OC)c(OC)c(OC)c2)c(OC)c1 (centres undefined)	–	inactive: -8.89%
CCOC(=O)Nc1ccc2c(c1)N(C(=O)CN1CCN(CCO)CC1)c1ccccc1CC2	–	inactive: -4.39%
COc1cccc(CNCC2CCCO2)c1 (centres undefined)	–	inactive: -4.01%
Cc1cc(Br)c(S(=O)(=O)NCc2ccncc2)cc1C	inconclusive: 2.06 µM [cytotoxic, full curve, poor fit]	–
CCCOc1ccc2oc(=O)c3c(c2c1)CCCN3C(=O)CN1CCc2ccccc2C1	inconclusive: 29.1 µM [cytotoxic, single point]	–
COc1ccc(OC)c(NS(=O)(=O)c2ccc(NC(C)=O)cc2)c1	inconclusive: 32.6 µM [cytotoxic, single point]	–
Cc1cc(C)cc(NC(=O)C2CCCN(C(=O)c3cnn(-c4ccccc4)c3-n3cccc3)C2)c1 (centres undefined)	inconclusive: 23.1 µM [cytotoxic, single point]	–
O=C(CSc1nc2c([nH]c3ccccc32)c(=O)n1-c1ccc(Cl)cc1)N1CCOCC1	–	inactive: 4.92%
COC(=O)Cc1c(C)nc2nc(Cc3ccccc3)[nH]n2c1=O	inconclusive: 20.6 µM [rising, partial curve, poor fit]	–
O=C(N/N=C/c1c(O)ccc2ccccc12)c1cccnc1	inconclusive: 6.51 µM [cytotoxic, partial curve]	–
CC(=O)c1ccc(N2CCN(C(=O)c3ccc(S(=O)(=O)NCc4ccco4)cc3)CC2)cc1	–	inactive: -6.24%

As entered above:
For Potency, COc1cc(C(=O)NC(=S)Nc2ccc(NC(=O)c3ccco3)cc2)cc(OC)c1OC reads inconclusive: 8.2 µM [rising, partial curve, poor fit]
For Potency, Cc1cc(C)cc(NC(=O)C2CCCN(C(=O)c3cnn(-c4ccccc4)c3-n3cccc3)C2)c1 (centres undefined) reads inconclusive: 23.1 µM [cytotoxic, single point]
For Potency, Cc1ccc(-c2c[n+](CC(=O)Nc3ccccc3)c3n2CCC3)cc1 reads inconclusive: 1.84 µM [cytotoxic, partial curve, poor fit]
For activity change, negative = cytotoxic, CCOc1ccc(N2C(=O)Nc3ccc(Br)cc3C2(O)C(=O)NC(C)C)cc1 (centres undefined) reads inactive: -0.0996%
For Potency, COc1ccc(N2C(=O)c3ccc(C(=O)OC(C)C)cc3C2=O)cc1 reads active: 18.4 µM

Following part

Compound	Potency	activity change, negative = cytotoxic
Fc1cccc(Cl)c1CSc1nnc(-c2ccncc2)o1	–	inactive: 10.6%
CC1(C)CC(=O)C(=Cc2cn(-c3ccccc3)nc2-c2ccccc2)C(=O)C1	–	inactive: 3.7%
O=C(CCc1ccccc1)N(Cc1cccnc1)c1nc2c(F)cccc2s1	inconclusive: 0.0146 µM [cytotoxic, full curve]	–
CC(C)C[C@H]1CNC(=S)N1C[C@H]1CCCN1C[C@H](Cc1ccc(O)cc1)N1C[C@H](Cc2ccc(O)cc2)N(CC2CCCCC2)C1=S	inconclusive: 29.1 µM [cytotoxic, single point]	–
CCc1nn(C(CC)C(=O)NCc2ccc(F)cc2)c(=O)c2cc3occc3n12 (centres undefined)	–	inactive: 0.992%
Cc1ccc(-n2nc(C)c(NC(=O)CCl)c2C)cc1C	active: 9.2 µM	–
CC(C)c1cccc(C(C)C)c1NC(=O)CCl	inconclusive: 29.1 µM [cytotoxic, single point]	–
O=C(Nc1c(F)cccc1F)C1CCN(C(=O)c2cccs2)CC1	–	inconclusive: 35.5%
O=C(c1ccc(Cl)c(S(=O)(=O)N2CCOCC2)c1)N(Cc1nnc(-c2ccccc2Cl)o1)C1CC1	inconclusive: 9.2 µM [cytotoxic, partial curve, poor fit]	–
COc1cc(C(CCN2CCCCC2)c2c(OC)cc(OC)c3c(-c4ccccc4)cc(=O)oc23)cc(OC)c1OC (centres undefined)	inconclusive: 14.6 µM [cytotoxic, partial curve, poor fit]	–
Cc1ccc(C)[n+](CC(=O)c2ccc(-c3ccccc3)cc2)c1	–	inactive: -2.01%
Cc1cccc(-c2oc3ccc(-c4ccc5c(c4)OCO5)cc3c2C(=O)OCc2ccc(O)cc2)c1	inconclusive: 25.9 µM [cytotoxic, partial curve, poor fit]	–
C/C(=N\NC(=O)c1nnn(-c2nonc2N)c1-c1cccs1)c1cccnc1	inconclusive: 32.6 µM [cytotoxic, partial curve, poor fit]	–
COc1cc2c(cc1O)CC[C@@H]1[C@@H]2CC[C@]2(C)[C@@H](O)CC[C@@H]12	active: 1.64 µM	–
O=C(COc1ccccc1C(=O)c1cnn(-c2ccccc2)c1)Nc1ccccc1	–	inactive: 15.6%
O=C1N=C(N2CCN(c3ccccc3)CC2)S/C1=C\c1cn[nH]c1-c1ccccc1	inconclusive: 6.51 µM [rising, full curve, poor fit]	–
CC(=O)Nc1nonc1-c1nnc(SCC(=O)Nc2cc(C)cc(C)c2)n1-c1ccccc1	–	inactive: 19.1%
COCCN(C(=O)c1csnn1)C(C(=O)NC1CCCCC1)c1ccccc1 (centres undefined)	inconclusive: 29.1 µM [rising, single point]	–
COC(=O)c1ccc2nc(-c3cccc(Br)c3)c(CC3CCCCC3)n2c1	inconclusive: 29.1 µM [cytotoxic, single point]	–
COc1cccc(/C=N/NC(=O)CNC(=O)/C=C\c2ccccc2)c1O	–	inactive: 3.07%
COc1ccccc1NS(=O)(=O)c1cc(NC(=O)C(C)NC(N)=O)ccc1N1CCCC1 (centres undefined)	inconclusive: 0.0082 µM [rising, full curve]	–
CCc1nnc(NC(=O)CCN(c2cc(C)cc(C)c2)S(=O)(=O)c2ccc(Cl)cc2)s1	inconclusive: 5.8 µM [cytotoxic, partial curve]	–
O=C(CCN1CCc2ccccc21)c1ccc2c(c1)OCCO2	inconclusive: 23.1 µM [cytotoxic, single point]	–

Compound	Potency	activity change, negative = cytotoxic
COc1ccc(-c2c(C)nn(-c3ccccc3)c2N)cc1	–	inactive: -1.14%
CC(C)Cn1c(=O)c(C(=O)NCc2ccccn2)c(O)c2ccccc21	inconclusive: 10.3 µM [cytotoxic, partial curve, poor fit]	–
CC(NC(=O)c1ccc(F)cc1)c1ccccc1 (centres undefined)	–	inconclusive: -0.788%
Cc1ccc(S(=O)(=O)c2c(Nc3cc(F)ccc3F)sc(C(=O)c3ccc(F)cc3)c2N)cc1	inconclusive: 29.1 µM [cytotoxic, single point]	–
CCCCN(C=O)c1c(CC)nc2ccc(C(=O)N(C)Cc3ccccc3)cn12	–	inactive: -0.142%
O=C(N/N=C/c1cc(Br)c(O)c(Br)c1O)c1ccc2c(c1)OCCO2	inconclusive: 29.1 µM [cytotoxic, single point]	–
CCCCN1C(=O)C(CC(=O)NCc2ccco2)CC(C(=O)N(CC)CC)=C1C (centres undefined)	–	inactive: -8.65%
CN1C(=O)/C(=C\C(=O)c2cccs2)c2ccccc21	inconclusive: 29.1 µM [cytotoxic, single point]	–
CCOc1cccc2cc(C(=O)Oc3ccc(OC)cc3)c(=O)oc12	–	inactive: 6.86%
CNC(=O)c1c(NC(=O)/C=C/c2ccccc2Cl)sc2c1CCC2	–	inactive: 0.103%
CN(C)c1cc[n+](/C(C(=S)Nc2ccc(SC(F)F)cc2)=C(/[O-])c2ccccc2)cc1	inconclusive: 20.6 µM [cytotoxic, partial curve]	–
O=C(Nc1cccc(Cl)c1N1CCOCC1)c1ccc([N+](=O)[O-])o1	inconclusive: 23.1 µM [cytotoxic, single point]	–
CCN(CC)c1ccc(/C=N/NC(=O)c2ccco2)cc1	active: 3.66 µM	–
CCCNC(=O)c1ccccc1NC(=O)c1ccccc1N(C)S(=O)(=O)c1ccccc1	inconclusive: 18.4 µM [cytotoxic, single point]	–
Cc1cccc(N2CCN(C(=S)c3ccc4c(c3)OCO4)CC2)c1	active: 10.3 µM	–
CC1CCC(NC(=O)c2cc3c(Cl)nc4ccccc4c3s2)CC1 (centres undefined)	inconclusive: 0.231 µM [rising, full curve]	–
C/C(CC(=O)NCc1ccco1)=N\NC(=O)COc1ccc(Cl)cc1Cl	inconclusive: 29.1 µM [cytotoxic, single point]	–
O=C(CN1CCCN(Cc2ccccc2Cl)S1(=O)=O)NCc1ccccc1	–	inconclusive: 8.46%
O=C(Nc1cccc(Cl)c1)c1ccc(OC(=S)N2CCOCC2)cc1	inconclusive: 32.6 µM [cytotoxic, single point]	–
Cc1ccc(C(=O)N/C(=C\c2ccc(-c3ccc(Br)cc3)o2)C(=O)NCCCN(C)C)cc1	active: 5.8 µM	–
O=C(CSc1ccc(C(F)(F)F)cc1[N+](=O)[O-])NCCOc1ccccc1	inconclusive: 7310 µM [cytotoxic, full curve, poor fit]	–
CC(=O)/C=C/n1c(=S)oc2ccccc21	inconclusive: 29.1 µM [cytotoxic, single point]	–
N#Cc1cn(-c2ccccc2)nc1C(=O)c1ccccc1	inconclusive: 16.4 µM [cytotoxic, partial curve, poor fit]	–

— PubChem BioAssay AID1347075 (National Center for Advancing Translational Sciences (NCATS), 2019)
